According to publication PMC7617965, “Interaction with AK2A links AIFM1 to cellular energy metabolism” (Molecular cell, 2025):
These are yes or no findings as the source states them, for the method shown. Binding calls can cover weak binding; strength is not graded here. For some of these results: Binding seen in cells or lysates may run through a third protein. For some of these results: Sequences can lack the tags named with a protein. Blank lines part the entries; values can stand above or below the molecule they belong to.

Legend:
myc-MIC27 = target: T1, myc-MIC27 (UniProt Q6UXV4); assay: co-IP; native lysis of HEK293 cells (100 mM sodium phosphate pH 8.0, 100 mM NaCl, 1% Triton X-100); IP of AIFM1-HA, of endogenous AIFM1 or of myc-tagged bait on an agarose matrix at 4°C; immunoblot
T1 sequence: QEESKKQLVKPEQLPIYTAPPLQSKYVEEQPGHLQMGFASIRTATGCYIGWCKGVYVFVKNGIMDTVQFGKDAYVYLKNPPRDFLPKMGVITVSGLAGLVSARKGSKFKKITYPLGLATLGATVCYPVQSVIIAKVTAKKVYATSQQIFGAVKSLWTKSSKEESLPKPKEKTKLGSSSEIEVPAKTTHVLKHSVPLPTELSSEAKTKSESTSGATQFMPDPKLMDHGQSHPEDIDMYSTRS

AIFM1-HA (human) = AIFM1-HA (human) (UniProt O95831); assay: as above
[1] = target: endogenous AIFM1 (human (endogenous in HEK293)) (UniProt O95831); assay: SEC; native lysates of WT and AIFM1 KO HEK293 cells on Superdex 200; fractions of the AIFM1 complex region analysed by label-free proteomics
[2] = target: endogenous AIFM1 (human (endogenous in HEK293)) (UniProt O95831); assay: co-IP; native lysis of HEK293 cells (100 mM sodium phosphate pH 8.0, 100 mM NaCl, 1% Triton X-100); IP of AIFM1-HA, of endogenous AIFM1 or of myc-tagged bait on an agarose matrix at 4°C; immunoblot
[3] = target: endogenous AIFM1 (human (endogenous in HEK293)) (UniProt O95831); assay: SEC; native lysates of HEK293 cells (WT, AIFM1 KO, AIFM1 KO with AIFM1-HA, AK2 KO with AK2A or AK2B; cycloheximide 4 h in one panel) on HiLoad 16/600 Superdex 200; fractions analysed by immunoblot, in part after a thiol shift with mmPEG24
[4] = target: endogenous AIFM1 (human (endogenous in HEK293)) (UniProt O95831); assay: SEC; native lysates of WT HEK293 cells and of cells overexpressing MIA40 (MIA40 OE); pooled complex and monomer fractions, immunoblot

binding (myc-MIC27): binds
Molecule: endogenous AIFM1 (from UniProt O95831)

binding (AIFM1-HA (human)): no binding
B1: CPOX, endogenous (enzyme, UniProt P36551 111-454)
chain: TSLGRPEEEEDELAHRCSSFMAPPVTDLGELRRRPGDMKTKMELLILETQAQVCQALAQVDGGANFSVDRWERKEGGGGISCVLQDGCVFEKAGVSISVVHGNLSEEAAKQMRSRGKVLKTKDGKLPFCAMGVSSVIHPKNPHAPTIHFNYRYFEVEEADGNKQWWFGGGCDLTPTYLNQEDAVHFHRTLKEACDQHGPDLYPKFKKWCDDYFFIAHRGERRGIGGIFFDDLDSPSKEEVFRFVQSCARAVVPSYIPLVKKHCDDSFTPQEKLWQQLRRGRYVEFNLLYDRGTKFGLFTPGSRIESILMSLPLTARWEYMHSPSENSKEAEILEVLRHPRDWVR

binding [1]: binds
binding (AIFM1-HA (human)): binds
binding [2]: binds
binding [3]: binds
B2: MIA40, endogenous (protein, UniProt Q8N4Q1 1-142)
chain: MSYCRQEGKDRIIFVTKEDHETPSSAELVADDPNDPYEEHGLILPNGNINWNCPCLGGMASGPCGEQFKSAFSCFHYSTEEIKGSDCVDQFRAMQECMQKYPDLYPQEDEDEEEEREKKPAEQAEETAPIEATATKEEEGSS

binding [4]: binds
B3: MIA40 overexpressed in HEK293 cells (protein, UniProt Q8N4Q1 1-142)
chain: B2 chain
